Test results taken from article PMC7554342.
These are yes or no findings as the source states them, for the method shown. Binding seen in cells or lysates may run through a third protein. Some results given as binding are weak or reduced against the parent protein; the word gives no strength.

Amino acid sequences for entries named in this document (tags omitted).
UniProt A0ACM8QAS8: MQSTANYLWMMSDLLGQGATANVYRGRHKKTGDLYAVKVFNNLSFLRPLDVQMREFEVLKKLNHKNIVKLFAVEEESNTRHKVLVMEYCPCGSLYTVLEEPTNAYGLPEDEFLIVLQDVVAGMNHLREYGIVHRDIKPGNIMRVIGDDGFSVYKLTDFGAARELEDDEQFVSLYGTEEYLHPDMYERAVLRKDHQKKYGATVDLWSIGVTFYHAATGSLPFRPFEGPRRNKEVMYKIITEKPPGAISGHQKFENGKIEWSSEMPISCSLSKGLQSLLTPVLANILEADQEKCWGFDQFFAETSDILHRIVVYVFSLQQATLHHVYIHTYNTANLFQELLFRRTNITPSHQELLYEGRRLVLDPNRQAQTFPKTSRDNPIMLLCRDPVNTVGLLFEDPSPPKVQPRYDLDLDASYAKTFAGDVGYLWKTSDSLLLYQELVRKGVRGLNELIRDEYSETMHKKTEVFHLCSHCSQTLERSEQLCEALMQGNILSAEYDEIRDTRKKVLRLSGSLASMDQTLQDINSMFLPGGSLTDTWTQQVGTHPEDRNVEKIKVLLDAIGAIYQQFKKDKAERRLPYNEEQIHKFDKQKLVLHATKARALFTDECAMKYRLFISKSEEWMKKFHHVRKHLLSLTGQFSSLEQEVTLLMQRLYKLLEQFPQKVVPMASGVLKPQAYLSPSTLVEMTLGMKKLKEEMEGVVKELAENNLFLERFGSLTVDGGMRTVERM

Molecular target: zebrafish TBK1-FLAG (p3 × FLAG-TBK1) (zebrafish)
Experiment: co-IP; anti-FLAG-conjugated agarose beads (FLAG-Tagged Protein Immunoprecipitation Kit) on lysates of EPC cells 48 h after co-transfection, with or without co-expressed TBK1_tv3-GFP; agarose washed 8-10 times; blots with anti-FLAG and anti-pTurboGFP

- binding: binds
Substance: zebrafish TBK1-GFP (pTurbo-TBK1-GFP) (from UniProt A0ACM8QAS8 1-727) (enzyme)
